From the supplement of paper PMC12823440, “Inhibitors supercharge kinase turnover through native proteolytic circuits” (Nature, 2025)
Structures can show the parent of a compound that is named as a salt. This is one part of the list. The calls rarely recur for the same compound in another form.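 In K562 cells expressing nanoluciferase-fused kinases, luminescence was recorded at 4 h intervals between 2 and 18 h, normalized as percent of control with DMSO at 100% and a positive control at 0%. A significant (2 sigma) signal drop marks a time point as decreased. The authors' rule for a hit is not shown and takes in more than the number of time points.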

Amino acid sequences for entries named in this document (tags omitted). A change or cut given only in a name is not applied to a line headed by its entry.
UniProt P43403: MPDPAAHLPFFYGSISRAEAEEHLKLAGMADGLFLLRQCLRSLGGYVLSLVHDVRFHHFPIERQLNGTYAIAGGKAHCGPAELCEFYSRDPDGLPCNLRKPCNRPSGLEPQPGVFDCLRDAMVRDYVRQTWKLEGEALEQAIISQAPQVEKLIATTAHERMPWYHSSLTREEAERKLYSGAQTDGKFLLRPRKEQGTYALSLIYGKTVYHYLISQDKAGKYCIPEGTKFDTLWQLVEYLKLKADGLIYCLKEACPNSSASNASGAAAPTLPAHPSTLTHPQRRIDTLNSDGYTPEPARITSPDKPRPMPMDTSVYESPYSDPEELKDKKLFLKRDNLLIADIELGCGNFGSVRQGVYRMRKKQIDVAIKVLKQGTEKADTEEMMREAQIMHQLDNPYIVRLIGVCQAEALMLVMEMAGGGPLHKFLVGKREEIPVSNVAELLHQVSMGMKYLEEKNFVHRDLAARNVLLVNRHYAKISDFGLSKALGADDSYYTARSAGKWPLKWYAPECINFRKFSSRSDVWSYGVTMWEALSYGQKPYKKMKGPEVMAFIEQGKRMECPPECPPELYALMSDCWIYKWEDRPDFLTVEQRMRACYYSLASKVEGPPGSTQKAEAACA
UniProt P31749: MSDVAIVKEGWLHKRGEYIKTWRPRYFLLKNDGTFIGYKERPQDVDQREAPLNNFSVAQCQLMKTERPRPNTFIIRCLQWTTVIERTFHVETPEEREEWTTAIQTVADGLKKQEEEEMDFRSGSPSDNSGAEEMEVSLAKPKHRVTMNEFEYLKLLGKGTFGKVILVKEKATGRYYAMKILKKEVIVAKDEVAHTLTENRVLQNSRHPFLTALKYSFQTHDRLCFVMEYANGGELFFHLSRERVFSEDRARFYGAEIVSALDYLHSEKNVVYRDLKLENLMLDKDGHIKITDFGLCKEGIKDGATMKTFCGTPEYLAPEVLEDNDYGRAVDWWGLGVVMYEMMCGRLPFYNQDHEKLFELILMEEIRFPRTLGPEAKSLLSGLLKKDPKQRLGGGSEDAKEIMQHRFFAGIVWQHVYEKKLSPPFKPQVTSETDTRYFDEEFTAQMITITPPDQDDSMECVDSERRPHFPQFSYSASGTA
UniProt Q9UM73: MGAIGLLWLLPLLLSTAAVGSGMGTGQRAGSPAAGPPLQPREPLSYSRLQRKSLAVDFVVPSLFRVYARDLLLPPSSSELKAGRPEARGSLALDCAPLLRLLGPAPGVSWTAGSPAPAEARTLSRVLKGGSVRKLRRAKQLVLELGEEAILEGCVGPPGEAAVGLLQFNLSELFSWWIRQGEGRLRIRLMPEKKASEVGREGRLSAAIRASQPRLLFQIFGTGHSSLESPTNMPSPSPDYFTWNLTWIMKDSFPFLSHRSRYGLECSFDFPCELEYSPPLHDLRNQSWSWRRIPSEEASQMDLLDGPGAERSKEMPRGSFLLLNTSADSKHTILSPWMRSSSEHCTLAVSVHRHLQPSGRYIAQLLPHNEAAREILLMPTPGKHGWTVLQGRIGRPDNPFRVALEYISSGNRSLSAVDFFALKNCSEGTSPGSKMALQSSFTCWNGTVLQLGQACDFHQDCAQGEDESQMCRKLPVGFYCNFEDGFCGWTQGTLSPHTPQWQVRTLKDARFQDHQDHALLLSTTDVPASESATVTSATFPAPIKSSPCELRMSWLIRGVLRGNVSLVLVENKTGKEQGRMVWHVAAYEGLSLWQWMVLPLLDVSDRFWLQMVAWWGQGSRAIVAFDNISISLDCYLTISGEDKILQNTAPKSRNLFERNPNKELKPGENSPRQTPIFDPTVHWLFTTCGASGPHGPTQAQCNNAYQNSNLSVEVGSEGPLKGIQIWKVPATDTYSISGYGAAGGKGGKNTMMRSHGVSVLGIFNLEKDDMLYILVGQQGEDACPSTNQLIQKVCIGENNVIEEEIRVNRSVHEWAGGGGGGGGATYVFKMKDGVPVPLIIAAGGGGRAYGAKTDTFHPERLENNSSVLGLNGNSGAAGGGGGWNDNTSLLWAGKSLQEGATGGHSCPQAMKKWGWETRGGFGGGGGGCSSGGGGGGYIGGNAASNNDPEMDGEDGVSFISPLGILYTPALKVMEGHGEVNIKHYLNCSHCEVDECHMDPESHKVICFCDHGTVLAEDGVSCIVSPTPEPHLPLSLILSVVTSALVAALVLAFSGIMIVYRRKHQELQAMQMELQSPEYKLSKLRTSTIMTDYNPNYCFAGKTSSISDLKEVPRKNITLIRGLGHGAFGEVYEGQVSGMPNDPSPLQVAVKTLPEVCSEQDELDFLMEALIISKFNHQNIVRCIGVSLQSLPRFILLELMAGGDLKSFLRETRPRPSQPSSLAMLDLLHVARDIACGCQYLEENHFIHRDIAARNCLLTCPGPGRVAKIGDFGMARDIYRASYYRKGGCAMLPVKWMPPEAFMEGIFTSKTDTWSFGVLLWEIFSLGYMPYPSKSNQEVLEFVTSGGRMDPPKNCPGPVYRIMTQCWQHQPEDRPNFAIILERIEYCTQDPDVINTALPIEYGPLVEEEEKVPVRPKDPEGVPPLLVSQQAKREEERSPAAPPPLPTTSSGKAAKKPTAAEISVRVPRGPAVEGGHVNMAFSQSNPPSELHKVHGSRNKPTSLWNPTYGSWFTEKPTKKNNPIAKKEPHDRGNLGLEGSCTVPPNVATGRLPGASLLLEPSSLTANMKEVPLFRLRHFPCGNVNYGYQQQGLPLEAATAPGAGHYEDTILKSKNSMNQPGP
UniProt P10398: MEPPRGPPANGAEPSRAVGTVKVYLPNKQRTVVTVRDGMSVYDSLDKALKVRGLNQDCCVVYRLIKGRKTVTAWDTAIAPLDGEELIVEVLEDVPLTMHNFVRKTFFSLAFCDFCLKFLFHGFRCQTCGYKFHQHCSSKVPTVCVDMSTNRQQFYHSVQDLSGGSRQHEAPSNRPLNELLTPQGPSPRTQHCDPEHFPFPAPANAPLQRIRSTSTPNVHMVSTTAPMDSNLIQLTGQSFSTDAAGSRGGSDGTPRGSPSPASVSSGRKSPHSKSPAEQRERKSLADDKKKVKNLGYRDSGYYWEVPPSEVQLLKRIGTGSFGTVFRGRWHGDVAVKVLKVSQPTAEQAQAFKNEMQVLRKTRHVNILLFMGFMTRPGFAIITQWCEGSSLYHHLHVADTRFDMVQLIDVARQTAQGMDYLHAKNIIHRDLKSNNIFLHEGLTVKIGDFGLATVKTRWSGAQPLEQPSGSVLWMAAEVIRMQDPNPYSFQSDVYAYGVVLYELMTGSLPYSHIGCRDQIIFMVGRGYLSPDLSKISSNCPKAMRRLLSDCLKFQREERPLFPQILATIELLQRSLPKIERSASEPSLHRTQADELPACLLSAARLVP
UniProt Q96GD4, whole entry: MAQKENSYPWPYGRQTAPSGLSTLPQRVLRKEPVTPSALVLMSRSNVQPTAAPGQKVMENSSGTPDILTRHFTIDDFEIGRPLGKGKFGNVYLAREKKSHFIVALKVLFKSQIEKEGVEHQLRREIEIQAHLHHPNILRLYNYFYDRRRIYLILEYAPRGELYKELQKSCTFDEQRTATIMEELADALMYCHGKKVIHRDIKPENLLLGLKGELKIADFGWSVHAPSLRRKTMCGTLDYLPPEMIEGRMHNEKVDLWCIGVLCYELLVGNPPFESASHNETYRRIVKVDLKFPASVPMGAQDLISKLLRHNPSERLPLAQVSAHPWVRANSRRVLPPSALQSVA
UniProt Q9UQB9: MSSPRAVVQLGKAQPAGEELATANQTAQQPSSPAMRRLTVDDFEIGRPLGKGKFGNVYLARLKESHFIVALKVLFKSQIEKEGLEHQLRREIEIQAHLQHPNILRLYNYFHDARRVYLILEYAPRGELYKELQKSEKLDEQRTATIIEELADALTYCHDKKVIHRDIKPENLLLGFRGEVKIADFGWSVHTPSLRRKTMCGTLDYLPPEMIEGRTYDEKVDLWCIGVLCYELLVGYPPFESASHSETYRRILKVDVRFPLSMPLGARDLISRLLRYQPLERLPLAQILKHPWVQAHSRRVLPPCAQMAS
UniProt P51451: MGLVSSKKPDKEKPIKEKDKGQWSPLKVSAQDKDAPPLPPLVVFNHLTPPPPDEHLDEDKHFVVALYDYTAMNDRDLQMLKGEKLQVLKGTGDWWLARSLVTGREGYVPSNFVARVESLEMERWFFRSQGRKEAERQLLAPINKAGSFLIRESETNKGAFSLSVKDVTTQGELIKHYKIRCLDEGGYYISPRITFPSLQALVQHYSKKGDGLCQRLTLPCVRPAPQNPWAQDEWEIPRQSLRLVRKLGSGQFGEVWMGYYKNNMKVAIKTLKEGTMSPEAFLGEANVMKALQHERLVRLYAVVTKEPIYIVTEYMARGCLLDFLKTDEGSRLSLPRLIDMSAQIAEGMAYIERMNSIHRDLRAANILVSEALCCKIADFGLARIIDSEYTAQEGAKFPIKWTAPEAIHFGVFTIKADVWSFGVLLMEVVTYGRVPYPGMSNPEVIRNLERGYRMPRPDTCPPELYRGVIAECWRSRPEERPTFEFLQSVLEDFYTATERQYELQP
UniProt P51813: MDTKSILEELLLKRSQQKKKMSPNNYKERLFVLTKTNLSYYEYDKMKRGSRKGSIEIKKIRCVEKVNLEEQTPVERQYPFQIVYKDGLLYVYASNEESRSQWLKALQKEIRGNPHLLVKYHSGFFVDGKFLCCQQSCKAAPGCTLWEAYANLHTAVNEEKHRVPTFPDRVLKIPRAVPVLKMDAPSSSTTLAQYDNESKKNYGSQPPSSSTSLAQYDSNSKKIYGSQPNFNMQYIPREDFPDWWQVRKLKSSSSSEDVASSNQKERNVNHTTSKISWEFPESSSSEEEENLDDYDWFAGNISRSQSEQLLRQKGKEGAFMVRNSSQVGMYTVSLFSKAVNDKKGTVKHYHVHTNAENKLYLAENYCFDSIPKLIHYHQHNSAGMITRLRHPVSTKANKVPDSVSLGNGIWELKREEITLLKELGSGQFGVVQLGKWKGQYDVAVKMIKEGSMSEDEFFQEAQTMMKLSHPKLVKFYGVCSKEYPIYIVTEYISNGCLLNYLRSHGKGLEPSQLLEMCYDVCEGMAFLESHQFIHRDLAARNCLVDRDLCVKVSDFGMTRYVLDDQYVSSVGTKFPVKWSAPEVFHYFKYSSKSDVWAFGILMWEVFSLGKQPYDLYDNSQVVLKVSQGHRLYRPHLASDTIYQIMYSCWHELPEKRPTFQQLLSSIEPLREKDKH
UniProt P15056, whole entry, looked up: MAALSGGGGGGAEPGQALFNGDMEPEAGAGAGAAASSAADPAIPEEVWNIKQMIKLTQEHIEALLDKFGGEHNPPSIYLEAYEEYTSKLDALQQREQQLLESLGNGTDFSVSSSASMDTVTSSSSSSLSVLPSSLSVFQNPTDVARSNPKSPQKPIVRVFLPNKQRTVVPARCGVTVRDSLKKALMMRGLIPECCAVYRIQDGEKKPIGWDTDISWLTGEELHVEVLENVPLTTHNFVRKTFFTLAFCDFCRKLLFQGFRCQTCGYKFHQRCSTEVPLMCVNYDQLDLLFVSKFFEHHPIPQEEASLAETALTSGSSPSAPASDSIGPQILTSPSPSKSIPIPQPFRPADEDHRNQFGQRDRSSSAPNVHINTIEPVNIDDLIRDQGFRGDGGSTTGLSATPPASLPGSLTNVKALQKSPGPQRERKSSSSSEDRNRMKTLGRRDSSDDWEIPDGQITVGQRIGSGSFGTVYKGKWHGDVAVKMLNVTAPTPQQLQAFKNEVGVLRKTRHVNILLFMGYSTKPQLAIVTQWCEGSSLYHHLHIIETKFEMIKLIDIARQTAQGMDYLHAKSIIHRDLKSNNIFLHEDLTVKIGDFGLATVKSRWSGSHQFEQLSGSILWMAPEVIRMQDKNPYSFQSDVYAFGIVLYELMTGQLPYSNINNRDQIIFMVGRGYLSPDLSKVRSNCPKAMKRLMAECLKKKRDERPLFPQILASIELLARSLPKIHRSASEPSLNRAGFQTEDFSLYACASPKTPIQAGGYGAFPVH
UniProt Q06187: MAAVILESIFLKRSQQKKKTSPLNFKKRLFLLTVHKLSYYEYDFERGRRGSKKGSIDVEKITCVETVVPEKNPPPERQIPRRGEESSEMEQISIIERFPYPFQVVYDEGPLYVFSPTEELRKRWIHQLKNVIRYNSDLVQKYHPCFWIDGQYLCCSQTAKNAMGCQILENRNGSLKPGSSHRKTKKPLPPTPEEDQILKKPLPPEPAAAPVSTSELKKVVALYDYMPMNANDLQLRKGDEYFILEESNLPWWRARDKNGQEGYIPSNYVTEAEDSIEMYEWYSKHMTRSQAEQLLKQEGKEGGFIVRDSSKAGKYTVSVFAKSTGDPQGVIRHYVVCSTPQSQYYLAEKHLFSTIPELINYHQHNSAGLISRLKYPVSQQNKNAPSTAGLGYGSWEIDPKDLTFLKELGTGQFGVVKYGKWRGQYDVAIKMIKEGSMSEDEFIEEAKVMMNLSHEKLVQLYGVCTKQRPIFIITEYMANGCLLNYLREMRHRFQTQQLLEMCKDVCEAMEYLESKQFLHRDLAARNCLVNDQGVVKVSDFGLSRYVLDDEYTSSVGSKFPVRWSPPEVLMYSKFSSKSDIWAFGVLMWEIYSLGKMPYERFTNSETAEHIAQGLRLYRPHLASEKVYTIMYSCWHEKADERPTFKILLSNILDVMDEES

How the values were obtained:
Settings in all cases: K562; 2-18 h
[1] = target: STK38 (UniProt Q15208); assay: kinase-Nluc reporter destabilization hit call (1 = scored as downregulated) (binary); higher = compound decreases kinase abundance
[2] = target: SYK (UniProt P43405); assay: as above
[3] = target: TEC (UniProt P42680); assay: as above
[4] = target: TYK2 (UniProt P29597); assay: as above
[5] = target: ULK3 (UniProt Q6PHR2); assay: as above
[6] = target: YES1 (UniProt P07947); assay: as above
[7] = target: ZAK (UniProt Q9NYL2); assay: as above
[8] = target: ZAP70 (UniProt P43403); assay: as above
[9] = target: ABL1 (UniProt P00519); assay: number of time points (of 5) at which kinase-Nluc abundance scored as decreased, DMSO-normalised (count); higher = more persistent destabilization
[10] = target: AKT1 (UniProt P31749); assay: as above
[11] = target: ALK (UniProt Q9UM73); assay: as above
[12] = target: ARAF (UniProt P10398); assay: as above
[13] = target: AURKA (UniProt O14965); assay: as above
[14] = target: AURKB (UniProt Q96GD4); assay: as above
[15] = target: AURKC (UniProt Q9UQB9); assay: as above
[16] = target: BLK (UniProt P51451); assay: as above
[17] = target: BMX (UniProt P51813); assay: as above
[18] = target: BRAF (UniProt P15056); assay: as above
[19] = system: BRAF_V600E; assay: as above
[20] = target: BTK (UniProt Q06187); assay: as above

Compound	kinase-Nluc reporter destabilization hit call [1]	kinase-Nluc reporter destabilization hit call [2]	kinase-Nluc reporter destabilization hit call [3]	kinase-Nluc reporter destabilization hit call [4]	kinase-Nluc reporter destabilization hit call [5]	kinase-Nluc reporter destabilization hit call [6]	kinase-Nluc reporter destabilization hit call [7]	kinase-Nluc reporter destabilization hit call [8]	number of time points [9]	number of time points [10]	number of time points [11]	number of time points [12]	number of time points [13]	number of time points [14]	number of time points [15]	number of time points [16]	number of time points [17]	number of time points [18]	number of time points [19]	number of time points [20]
COc1cc(OC)cc(-c2cc3cnc(N)nc3nc2NC(=O)NC(C)(C)C)c1 (10 µM)	inactive: 0	inactive: 0	inactive: 0	inactive: 0	inactive: 0	inactive: 0	inactive: 0	inactive: 0	0	0	0	0	0	0	0	0	0	0	0	0
CN(C)C(=O)/C(C#N)=C/c1ccc(-c2nc3cnc4[nH]ccc4c3n2C2CCCCC2)o1 (10 µM)	inactive: 0	inactive: 0	inactive: 0	inactive: 0	inactive: 0	inactive: 0	inactive: 0	inactive: 0	0	0	0	0	0	0	0	0	0	0	0	0
Nc1nc(N)c(N=O)c(OCC2CCCCC2)n1 (10 µM)	inactive: 0	inactive: 0	inactive: 0	inactive: 0	inactive: 0	inactive: 0	inactive: 0	inactive: 0	0	0	0	0	0	0	0	0	0	0	0	0
CC(C)c1cnn2c(NCc3ccccc3)cc(NC[C@H]3CCNC[C@@H]3O)nc12 [Samuraciclib (hydrochloride)] (10 µM)	inactive: 0	inactive: 0	inactive: 0	inactive: 0	inactive: 0	inactive: 0	inactive: 0	inactive: 0	0	0	0	0	0	0	0	0	0	0	0	0
O=C([O-])c1ccccc1O.[Na+] [Sodium Salicylate] (10 µM)	inactive: 0	inactive: 0	inactive: 0	inactive: 0	inactive: 0	inactive: 0	inactive: 0	inactive: 0	0	0	0	0	0	0	0	0	0	0	0	0
O=C1Nc2ccccc2/C1=C/c1ccc(F)cc1 (10 µM)	inactive: 0	inactive: 0	inactive: 0	inactive: 0	inactive: 0	inactive: 0	inactive: 0	inactive: 0	0	0	0	0	0	0	0	0	0	0	0	0
C=CC(=O)N1CC[C@H](n2nc(C#Cc3cc(OC)cc(OC)c3)c3c(N)ncnc32)C1 [Futibatinib] (10 µM)	inactive: 0	inactive: 0	inactive: 0	inactive: 0	inactive: 0	inactive: 0	inactive: 0	inactive: 0	0	0	0	0	0	0	0	0	0	0	0	0
CCn1cc(-c2ccnc3[nH]c(-c4cccc(CN(C)C)c4)cc23)c(-c2ccc(NC(=O)N(C)C)cc2)n1 (2.5 µM)	inactive: 0	inactive: 0	inactive: 0	inactive: 0	inactive: 0	inactive: 0	inactive: 0	inactive: 0	0	0	0	0	0	0	0	0	0	0	0	0
O=C(/C=C/c1ccc(O)c(O)c1)c1ccc(O)cc1O [Butein] (10 µM)	inactive: 0	inactive: 0	inactive: 0	inactive: 0	active: 1	inactive: 0	inactive: 0	inactive: 0	3	0	3	0	1	0	0	0	3	0	3	0
O=c1cc(-c2ccccc2)oc2c(O)c(O)ccc12 [7,8-Dihydroxyflavone] (10 µM)	inactive: 0	inactive: 0	inactive: 0	inactive: 0	inactive: 0	inactive: 0	inactive: 0	inactive: 0	0	0	0	0	0	0	0	0	0	0	0	0
COc1cc2ncn(-c3cc(OCc4ccccc4C(F)(F)F)c(C(N)=O)s3)c2cc1OC (10 µM)	inactive: 0	inactive: 0	inactive: 0	inactive: 0	inactive: 0	inactive: 0	inactive: 0	inactive: 0	0	0	0	0	0	0	0	0	0	0	0	0
C[C@H](CN(C)C)Oc1nc(Nc2cc3cccc(Cl)c3cn2)cnc1C#N (10 µM)	inactive: 0	inactive: 0	inactive: 0	inactive: 0	inactive: 0	inactive: 0	inactive: 0	inactive: 0	0	0	0	0	0	0	0	0	0	0	0	0
C=CC(=O)N1CCN(CCCn2c(=O)c(-c3c(Cl)c(OC)cc(OC)c3Cl)cc3cnc(NC)nc32)CC1 (10 µM)	inactive: 0	inactive: 0	inactive: 0	inactive: 0	inactive: 0	inactive: 0	inactive: 0	inactive: 0	0	0	0	0	0	0	0	0	0	0	0	0
c1cc(OCCN2CCCCC2)cc(-c2n[nH]c3ccc(-c4nnc[nH]4)cc23)c1 [CC-401 (hydrochloride)] (10 µM)	inactive: 0	inactive: 0	inactive: 0	inactive: 0	inactive: 0	inactive: 0	inactive: 0	inactive: 0	0	0	0	0	0	0	0	0	0	0	0	0
CC(C)(C)n1nc(Cc2cccc3ccccc23)c2c(N)ncnc21 (10 µM)	inactive: 0	inactive: 0	inactive: 0	inactive: 0	inactive: 0	inactive: 0	inactive: 0	inactive: 0	0	0	0	0	0	0	0	0	0	0	0	0
COc1ccc(C=C(C#N)c2cccnc2)cc1OC (10 µM)	inactive: 0	inactive: 0	inactive: 0	inactive: 0	inactive: 0	inactive: 0	inactive: 0	inactive: 0	0	0	0	0	0	0	0	0	0	0	0	0
COc1cc2c(Nc3ccc(Br)cc3F)ncnc2cc1OCCn1ccnn1 (10 µM)	inactive: 0	inactive: 0	inactive: 0	inactive: 0	inactive: 0	inactive: 0	inactive: 0	inactive: 0	0	0	0	0	0	0	0	0	0	0	0	0
CC(=O)N1CCN(c2ccc(OCC3COC(Cn4ccnc4)(c4ccc(Cl)cc4Cl)O3)cc2)CC1 (stereo not given) [Ketoconazole] (2.5 µM)	inactive: 0	inactive: 0	inactive: 0	inactive: 0	inactive: 0	inactive: 0	inactive: 0	inactive: 0	0	0	0	0	0	0	0	0	0	0	0	0
N#CC(=Cc1ccc(O)c(O)c1)C(=O)NCc1ccccc1 (mixture of isomers) (10 µM)	inactive: 0	inactive: 0	inactive: 0	inactive: 0	inactive: 0	inactive: 0	inactive: 0	inactive: 0	0	0	0	0	0	0	0	0	0	0	0	0
CCC(=O)N1CCN(c2ccc(-n3c(=O)ccc4cnc5ccc(-c6cnc7ccccc7c6)cc5c43)cc2C(F)(F)F)CC1 [Torin 1] (2 µM)	inactive: 0	inactive: 0	inactive: 0	inactive: 0	inactive: 0	inactive: 0	inactive: 0	inactive: 0	5	0	1	0	1	4	0	2	4	0	1	0
CCOc1cc2ncc(C#N)c(Nc3ccc(OCc4ccccn4)c(Cl)c3)c2cc1NC(=O)/C=C/CN(C)C [Neratinib] (10 µM)	inactive: 0	inactive: 0	inactive: 0	inactive: 0	inactive: 0	inactive: 0	inactive: 0	inactive: 0	1	0	0	0	0	0	0	0	3	0	0	0

Another view of some results above.
Compound | kinase-Nluc reporter destabilization hit call [1] | kinase-Nluc reporter destabilization hit call [2] | kinase-Nluc reporter destabilization hit call [3] | kinase-Nluc reporter destabilization hit call [4] | kinase-Nluc reporter destabilization hit call [5] | kinase-Nluc reporter destabilization hit call [6] | kinase-Nluc reporter destabilization hit call [7] | kinase-Nluc reporter destabilization hit call [8] | number of time points [9] | number of time points [10] | number of time points [11] | number of time points [12] | number of time points [13] | number of time points [14] | number of time points [15] | number of time points [16] | number of time points [17] | number of time points [18] | number of time points [19] | number of time points [20]
COc1cc2c(Nc3ccc(Br)cc3F)ncnc2cc1OCCn1ccnn1 (10 µM) | inactive: 0 | inactive: 0 | inactive: 0 | inactive: 0 | inactive: 0 | inactive: 0 | inactive: 0 | inactive: 0 | 0 | 0 | 0 | 0 | 0 | 0 | 0 | 0 | 0 | 0 | 0 | 0
CC(=O)N1CCN(c2ccc(OCC3COC(Cn4ccnc4)(c4ccc(Cl)cc4Cl)O3)cc2)CC1 (stereo not given) [Ketoconazole] (2.5 µM) | inactive: 0 | inactive: 0 | inactive: 0 | inactive: 0 | inactive: 0 | inactive: 0 | inactive: 0 | inactive: 0 | 0 | 0 | 0 | 0 | 0 | 0 | 0 | 0 | 0 | 0 | 0 | 0
